Experiment [1] has as its target T1, Ada2b isoform B, C-terminally HA2-Flag2 tagged (Ada2b-PBH2F2) (Drosophila) (UniProt Q8I8V0).
T1 sequence: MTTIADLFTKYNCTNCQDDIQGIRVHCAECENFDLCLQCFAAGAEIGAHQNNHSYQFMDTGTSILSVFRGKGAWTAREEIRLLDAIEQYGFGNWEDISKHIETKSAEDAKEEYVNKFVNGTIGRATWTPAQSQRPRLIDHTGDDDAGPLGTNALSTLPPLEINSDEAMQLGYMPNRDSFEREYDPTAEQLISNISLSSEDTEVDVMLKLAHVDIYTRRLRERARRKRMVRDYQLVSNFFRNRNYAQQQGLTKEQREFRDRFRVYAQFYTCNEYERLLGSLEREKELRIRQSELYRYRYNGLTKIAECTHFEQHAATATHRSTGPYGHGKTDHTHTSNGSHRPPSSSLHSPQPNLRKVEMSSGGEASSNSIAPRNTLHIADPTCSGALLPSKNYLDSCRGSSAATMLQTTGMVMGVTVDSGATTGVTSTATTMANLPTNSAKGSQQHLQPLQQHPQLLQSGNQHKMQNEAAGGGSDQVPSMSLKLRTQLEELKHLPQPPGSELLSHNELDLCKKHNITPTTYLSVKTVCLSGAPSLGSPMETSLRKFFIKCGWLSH
In words: co-IP + SEC; Flag affinity purification (M2 anti-Flag beads, high salt washes, 3x Flag peptide elution) of Ada2b-PBH2F2 from S2 nuclear extract, eluate separated on Superose 6, fractions probed by Western blot. On the technique in general: A western blot detects proteins with antibodies after separation by electrophoresis.

Amino acid sequences for entries named in this document (tags omitted).
UniProt O76216: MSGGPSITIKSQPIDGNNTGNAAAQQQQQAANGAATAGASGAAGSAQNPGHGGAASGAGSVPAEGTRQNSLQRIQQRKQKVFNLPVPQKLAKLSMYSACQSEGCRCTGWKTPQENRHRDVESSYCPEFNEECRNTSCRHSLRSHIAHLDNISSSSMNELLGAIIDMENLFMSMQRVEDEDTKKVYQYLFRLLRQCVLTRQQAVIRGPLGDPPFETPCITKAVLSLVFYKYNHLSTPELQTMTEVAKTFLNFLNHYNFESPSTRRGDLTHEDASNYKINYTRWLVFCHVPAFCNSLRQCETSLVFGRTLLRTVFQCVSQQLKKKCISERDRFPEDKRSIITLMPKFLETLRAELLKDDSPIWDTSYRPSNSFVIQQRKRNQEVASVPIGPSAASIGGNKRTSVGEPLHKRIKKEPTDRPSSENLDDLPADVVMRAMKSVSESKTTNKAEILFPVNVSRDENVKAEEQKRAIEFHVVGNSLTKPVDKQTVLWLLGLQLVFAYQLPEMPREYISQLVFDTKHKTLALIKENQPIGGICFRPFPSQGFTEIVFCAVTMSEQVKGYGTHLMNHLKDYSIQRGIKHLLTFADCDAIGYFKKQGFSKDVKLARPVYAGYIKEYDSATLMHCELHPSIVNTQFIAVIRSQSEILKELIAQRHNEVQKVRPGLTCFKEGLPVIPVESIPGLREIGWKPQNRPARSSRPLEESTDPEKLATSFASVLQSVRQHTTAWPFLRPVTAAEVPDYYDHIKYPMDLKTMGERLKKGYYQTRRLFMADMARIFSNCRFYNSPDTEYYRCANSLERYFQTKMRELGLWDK

The target in experiment [2] is T1, Ada2b isoform B, C-terminally HA2-Flag2 tagged (Ada2b-PBH2F2) (Drosophila). The description is as above. The source holds these as a separate data set.

2 molecules from publication PMC6468242 can be followed below.

Like-named read-outs stand apart in the source and are kept apart here. Results are given in words; binding and its absence hold for the method and conditions named. In cells and extracts the contact can be indirect. Some results given as binding are weak or reduced against the parent protein; the word gives no strength. Tags and fused reporters may be left off the sequences shown.

“Gcn5 (from UniProt O76216 1-813) (enzyme)”: the binding entry in experiment [1] is recorded as “binds”.

B1: Spt3 (protein, UniProt Q9VGE2 1-384)
chain: MNYNAKRVMRQNSVCVGSNDMAASPIMIGPAPPSAPSTPQLQTTEDIKPLLVQRQVILLQSGSIPTNPSPQQINLAGHNVAGGASGSNVANVLIPDDAPVSLLTEIADIMRSFGDSDQPRTGSVKLVEQILQQQLRGIFNEASLVAMRRKQNPCPSQADFEFLMRNHPVKIARMRKHLKDMRILKRFLSIRTGRPQDFMDDLEQQEEDEELAIDVYELHDEDRMRRLFRADRISQILTGQQYLEFNEARKTSFYCRHGEKIKNKFRRFLDLPADLRIPTPTMNILAYLAHETIAAIVDYSILTRLNSDNRATEPYSRVTSAGGSPAMMHVCPEVTQGRGMEVVKPISVPEIHEAMRRFRQMSSRKIGRYRNSCDIDFRRSFLAI
On to B1, for which, in experiment [2], the binding result is reported as “binds”.
